Measurements from publication PMC8564290.
Results are given in words; binding and its absence hold for the method and conditions named. In cells and extracts the contact can be indirect. Some entries that bind do so weakly or less than the wild type.

The chains behind the UniProt entries cited, without tags or fusion partners.
UniProt Q8BWG9: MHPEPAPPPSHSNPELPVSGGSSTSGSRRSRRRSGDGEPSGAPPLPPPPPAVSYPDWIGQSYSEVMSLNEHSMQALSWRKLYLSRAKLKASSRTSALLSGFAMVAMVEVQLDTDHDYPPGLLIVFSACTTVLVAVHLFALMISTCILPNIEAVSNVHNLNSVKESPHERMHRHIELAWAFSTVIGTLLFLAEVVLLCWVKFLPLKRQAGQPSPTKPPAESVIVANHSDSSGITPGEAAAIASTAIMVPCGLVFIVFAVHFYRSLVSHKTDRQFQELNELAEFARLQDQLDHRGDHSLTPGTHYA
UniProt Q08460: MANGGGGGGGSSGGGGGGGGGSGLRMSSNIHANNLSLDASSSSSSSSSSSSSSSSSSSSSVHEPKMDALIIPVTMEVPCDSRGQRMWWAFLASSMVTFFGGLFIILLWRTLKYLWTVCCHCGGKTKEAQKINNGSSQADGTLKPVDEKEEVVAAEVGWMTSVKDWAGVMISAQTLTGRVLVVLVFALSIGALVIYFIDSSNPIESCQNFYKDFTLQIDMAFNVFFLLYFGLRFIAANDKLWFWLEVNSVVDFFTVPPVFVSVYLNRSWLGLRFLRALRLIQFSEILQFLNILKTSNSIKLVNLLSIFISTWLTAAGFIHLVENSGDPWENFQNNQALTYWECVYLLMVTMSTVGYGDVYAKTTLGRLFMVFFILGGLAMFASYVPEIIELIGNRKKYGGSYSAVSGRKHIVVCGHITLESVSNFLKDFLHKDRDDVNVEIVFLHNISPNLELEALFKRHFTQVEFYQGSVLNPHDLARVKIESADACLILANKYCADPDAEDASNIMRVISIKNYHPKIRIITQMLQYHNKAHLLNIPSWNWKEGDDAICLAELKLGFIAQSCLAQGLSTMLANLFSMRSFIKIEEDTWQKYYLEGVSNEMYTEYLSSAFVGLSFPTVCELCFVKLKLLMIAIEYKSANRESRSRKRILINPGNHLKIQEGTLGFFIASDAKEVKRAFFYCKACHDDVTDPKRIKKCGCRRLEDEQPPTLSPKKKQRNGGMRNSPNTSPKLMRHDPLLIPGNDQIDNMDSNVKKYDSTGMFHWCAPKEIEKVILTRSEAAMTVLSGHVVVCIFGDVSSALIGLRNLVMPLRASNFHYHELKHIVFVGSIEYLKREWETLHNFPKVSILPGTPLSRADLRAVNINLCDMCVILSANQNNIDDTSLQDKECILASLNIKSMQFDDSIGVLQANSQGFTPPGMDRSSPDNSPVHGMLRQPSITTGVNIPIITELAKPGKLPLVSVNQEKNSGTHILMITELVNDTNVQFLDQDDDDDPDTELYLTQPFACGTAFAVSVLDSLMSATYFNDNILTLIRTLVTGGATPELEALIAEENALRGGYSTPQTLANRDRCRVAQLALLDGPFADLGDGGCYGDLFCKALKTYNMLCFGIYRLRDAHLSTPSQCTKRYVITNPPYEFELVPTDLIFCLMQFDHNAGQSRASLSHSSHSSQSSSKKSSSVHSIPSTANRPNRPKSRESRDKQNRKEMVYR

Biological target: Orai1 (mouse (endogenous in small intestinal smooth muscle)) (UniProt Q8BWG9)
Assay: co-IP; proteins from small intestinal smooth muscle of age-matched control or diabetic (STZ) mice, extracted with 1% Nonidet P-40, 150 mmol/L NaCl, 20 mmol/L Tris-HCl pH 8.0 plus protease inhibitors; immunoprecipitated with anti-Orai1, immunoblotted with anti-BKCa channel or anti-Orai1; less BKCa pulled down in diabetic mice

binding: binds
Substance: large conductance Ca2+-activated K+ (BKCa) channel (from UniProt Q08460 1-1209)
